Measurements taken from article PMC8519427.
No constants are given. Whether binding was seen depends on the method and setting. For some assays here: Binding can be weak; no strength is given. Where a sequence is shown, tags or fusion partners need not be part of it.

Experiments:
Assay in all cases: pull-down; MBP- or GST-tagged Stim1 or Orai1 fragments immobilised on amylose or glutathione resin, incubated with 20–50 nM α-SNAP in Ringer's buffer with 0.1% NP-40 and 2 mM imidazole, 1 hr at 4°C; washed thrice; Western blot for α-SNAP; both purified
[1] = target: MBP-Orai1 245–272 (human)
[2] = target: MBP-Orai1 48–103 (human)
[3] = target: MBP-Orai1 1–47 (human)
[4] = target: MBP-Orai1 272–292 (human)
[5] = target: MBP-tagged Orai1 1–103 (human)

- binding [1]: binds
- binding [2]: binds
- binding [3]: no binding (tested: 20–50 nM of α-SNAP)
- binding [4]: no binding (tested: 20–50 nM of α-SNAP)
- binding [5]: binds
B1: human α-SNAP with an Avitag and a C-terminal 6xHis tag (protein, UniProt P54920 1-295)
chain: MDNSGKEAEAMALLAEAERKVKNSQSFFSGLFGGSSKIEEACEIYARAANMFKMAKNWSAAGNAFCQAAQLHLQLQSKHDAATCFVDAGNAFKKADPQEAINCLMRAIEIYTDMGRFTIAAKHHISIAEIYETELVDIEKAIAHYEQSADYYKGEESNSSANKCLLKVAGYAALLEQYQKAIDIYEQVGTNAMDSPLLKYSAKDYFFKAALCHFCIDMLNAKLAVQKYEELFPAFSDSRECKLMKKLLEAHEEQNVDSYTESVKEYDSISRLDQWLTTMLLRIKKTIQGDEEDLR
modifications: biotin (in vitro biotinylated using BirA ligase; Avitag)
